Measured values taken from patent publication US8889707B2, “Treatment of addiction” (priority 2012, dated 2014).
For at least one compound, name, drawing or mass did not settle the structure.

Test system: Male Sprague-Dawley rats
Assay: Conditioned Place Preference (CPP) conditioning with cocaine
Type: in vivo, rat
Conditions: cocaine 15 mg/kg every other day, days 2-11; test day 12; vs saline controls; p<0.0005; FIG. 2A

COC(=O)[C@H]1[C@@H](OC(=O)c2ccccc2)C[C@@H]2CC[C@H]1N2C [cocaine]
Amount of time spent in the cocaine-associated compartment: significantly longer
